Test results published in patent US10021880B2, “Diarylimidazole compound and harmful organism control agent” (Nippon Soda Co., Ltd., priority 2014, dated 2018).
Some results were stated once for a whole list of compounds, not compound by compound.

Key:
Format in all cases: in vivo
Plutella xylostella = experiment: Efficacy test against Plutella xylostella (soil irrigating test); details: 500 ppm, 10 ml irrigated to bok choy seedlings, adults released after 7 days, living larvae counted 7 days after release
Pseudaletia separate = experiment: Efficacy test against Pseudaletia separate (seed treatment test); details: 0.1 g compound on 10 g wheat seeds, larvae released 7 days after seeding, counted after 3 days
Rhopalosiphum padi = experiment: Efficacy test against Rhopalosiphum padi (seed treatment test); details: 0.1 g compound on 10 g wheat seeds, adults released 7 days after seeding, counted after 6 days

Row | SMILES | prevention rate against Plutella xylostella (soil irrigating test) (Plutella xylostella) [%] | prevention rate against the first-instar larvae of Pseudaletia separate (seed treatment test) (Pseudaletia separate) [%] | prevention rate against Rhopalosiphum padi (seed treatment test) (Rhopalosiphum padi) [%]
1 | CCS(=O)(=O)c1cc(C(F)(F)F)ccc1-c1ncc(-c2ccc(C(F)(F)F)nc2)n1C [Compound 1-46] | ≥ 80 |  | 
2 | CCS(=O)(=O)c1cc(C(F)(F)F)ccc1-c1ncc(-c2cncc(C(F)(F)F)c2)n1C [Compound 1-47] | ≥ 80 | ≥ 80 | ≥ 80
3 | CCS(=O)(=O)c1cc(C(F)(F)F)ccc1-c1ncc(-c2cnn(C(F)(F)F)c2)n1C [Compound 1-65] | ≥ 80 | ≥ 80 | ≥ 80
4 | CCS(=O)(=O)c1cc(C(F)(F)F)ccc1-c1ncc(-c2ccc(C(F)(F)F)cc2C#N)n1C [Compound 1-69] | ≥ 80 | ≥ 80 | ≥ 80
5 | CCS(=O)(=O)c1cc(C(F)(F)F)ccc1-c1ncc(-c2ccc(Cl)nc2)n1C [Compound 1-85] | ≥ 80 |  | 
6 | CCS(=O)(=O)c1cc(C(F)(F)F)ccc1-c1ncc(-c2ccc(C(F)(F)F)c(C#N)c2)n1C [Compound 1-102] | ≥ 80 | ≥ 80 | ≥ 80
7 | CCS(=O)(=O)c1cc(C(F)(F)F)ccc1-c1ncc(-c2ccc(Br)nc2)n1C [Compound 1-121] | ≥ 80 |  | 
8 | CCS(=O)(=O)c1cccnc1-c1ncc(-c2ccc(C(F)(F)F)cc2)n1C [Compound 2-5] | ≥ 80 | ≥ 80 | ≥ 80
9 | CCS(=O)(=O)c1cnccc1-c1ncc(-c2ccc(C(F)(F)F)cc2)n1C [Compound 3-1] | ≥ 80 |  | 
10 | CCS(=O)(=O)c1cc(C(F)F)ccc1-c1cnc(-c2ccc(C(F)(F)F)cc2)n1C [Compound 6-28] | ≥ 80 |  | 
11 | CCS(=O)(=O)c1cc(C(F)(F)F)ccc1-c1cnc(-c2ccc(Cl)cc2)n1C [Compound 6-53] | ≥ 80 | ≥ 80 | ≥ 80
